Laboratory results taken from paper PMC12128024 (Bioconjugate Chemistry, 2025).

Assay: general procedure: Fmoc solid-phase peptide synthesis; chlorotrityl resin; HBTU (Arg), HATU (Fmoc-βAlaBpy-OH); PyAOP for cyclisation
Settings: whole synthesis, scale 0.05 mmol, TFA salt

| Substance | isolated mass [mg] | isolated yield [%] |
| --- | --- | --- |
| cyclo-(βAlaBpy-Arg3)2 | 52.1 | 71 |
| cyclo-(βAlaBpy-Arg3)3 | 50.2 | 68 |
